No constants are given. Whether binding was seen depends on the method and setting. Some entries that bind do so weakly or less than the wild type.

The chains behind the UniProt entries cited, without tags or fusion partners. Where a name states a change or a piece, a line headed by the entry shows the natural chain unless it says otherwise.
UniProt P15941: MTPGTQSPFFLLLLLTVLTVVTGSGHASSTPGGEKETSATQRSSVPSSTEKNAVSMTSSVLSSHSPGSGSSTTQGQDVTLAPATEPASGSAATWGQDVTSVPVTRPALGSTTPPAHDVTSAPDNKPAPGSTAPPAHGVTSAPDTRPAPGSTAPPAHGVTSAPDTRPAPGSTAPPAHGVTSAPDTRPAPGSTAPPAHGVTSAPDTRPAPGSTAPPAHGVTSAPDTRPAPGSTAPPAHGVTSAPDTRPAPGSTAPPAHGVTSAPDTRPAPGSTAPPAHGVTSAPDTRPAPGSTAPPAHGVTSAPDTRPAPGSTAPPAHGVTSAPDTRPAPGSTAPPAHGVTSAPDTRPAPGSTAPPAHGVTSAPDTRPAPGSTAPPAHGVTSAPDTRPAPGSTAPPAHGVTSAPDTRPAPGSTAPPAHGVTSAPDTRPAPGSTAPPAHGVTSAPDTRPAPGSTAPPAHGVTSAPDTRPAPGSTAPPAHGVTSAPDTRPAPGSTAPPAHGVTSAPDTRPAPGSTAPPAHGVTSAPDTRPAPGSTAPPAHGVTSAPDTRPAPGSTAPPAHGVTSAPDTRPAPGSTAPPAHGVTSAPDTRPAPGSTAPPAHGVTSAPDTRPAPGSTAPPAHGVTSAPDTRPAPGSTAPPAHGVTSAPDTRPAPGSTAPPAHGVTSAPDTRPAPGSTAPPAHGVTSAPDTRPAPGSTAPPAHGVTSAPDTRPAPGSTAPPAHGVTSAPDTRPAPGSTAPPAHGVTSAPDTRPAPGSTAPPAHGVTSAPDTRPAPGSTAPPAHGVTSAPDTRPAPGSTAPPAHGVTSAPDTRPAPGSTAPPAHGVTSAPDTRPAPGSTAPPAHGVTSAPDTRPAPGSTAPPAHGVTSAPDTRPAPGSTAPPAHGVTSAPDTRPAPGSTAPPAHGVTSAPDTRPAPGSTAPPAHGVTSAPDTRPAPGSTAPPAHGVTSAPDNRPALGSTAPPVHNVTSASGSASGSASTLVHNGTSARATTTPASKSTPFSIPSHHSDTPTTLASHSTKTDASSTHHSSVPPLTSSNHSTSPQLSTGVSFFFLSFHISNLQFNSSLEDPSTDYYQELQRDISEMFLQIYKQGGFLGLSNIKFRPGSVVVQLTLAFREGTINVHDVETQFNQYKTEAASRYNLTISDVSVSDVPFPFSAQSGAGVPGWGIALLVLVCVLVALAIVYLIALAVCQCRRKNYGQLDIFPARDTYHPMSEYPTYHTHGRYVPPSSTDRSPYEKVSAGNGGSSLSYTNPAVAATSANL

This assay has as its target MUC1-C (human) (UniProt P15941). Nature of the assay: Immunohistochemistry, formalin-fixed human breast carcinoma sections, CD2 1:100.

B1: anti-MUC1-CD (CD2) antibody (antibody, V domains shown)
VH: EVQLQQSGAELVKPGASVKLSCTASGFNIEDHYMHWVKQRTEQGLDWIGRIDPEDGQTKYDPKFQGKATITVDTSSNTAYLQLSSLTSEDTAVYYCARNYPYALDYWGQGTSVTVSS
VL: DIVMSQSPSSLAVSVGEKVTLSCKSSQSLLYSSDQKNYLAWYQQKPGQSPKLLIYWASTRESGVPDRFTGSGSGTDFTLTISSVKAEDLAVYYCQQYYRYPFTFGSGTQLEIK
On to B1, for which the binding entry is on record as “binds”.

Values taken from patent US20130039974A1.
